Laboratory results reported in publication PMC11286522.
Results are given in words; binding and its absence hold for the method and conditions named. Binding seen in cells or lysates may run through a third protein. Here binding means that the protein was enriched with, or labelled near, the bait; the list need not be complete. Blank lines part the entries; values can stand above or below the molecule they belong to.

By UniProt entry, the sequences of proteins in these tests, tags left out. Residues count along the entry.
UniProt O15460, residues 22-535: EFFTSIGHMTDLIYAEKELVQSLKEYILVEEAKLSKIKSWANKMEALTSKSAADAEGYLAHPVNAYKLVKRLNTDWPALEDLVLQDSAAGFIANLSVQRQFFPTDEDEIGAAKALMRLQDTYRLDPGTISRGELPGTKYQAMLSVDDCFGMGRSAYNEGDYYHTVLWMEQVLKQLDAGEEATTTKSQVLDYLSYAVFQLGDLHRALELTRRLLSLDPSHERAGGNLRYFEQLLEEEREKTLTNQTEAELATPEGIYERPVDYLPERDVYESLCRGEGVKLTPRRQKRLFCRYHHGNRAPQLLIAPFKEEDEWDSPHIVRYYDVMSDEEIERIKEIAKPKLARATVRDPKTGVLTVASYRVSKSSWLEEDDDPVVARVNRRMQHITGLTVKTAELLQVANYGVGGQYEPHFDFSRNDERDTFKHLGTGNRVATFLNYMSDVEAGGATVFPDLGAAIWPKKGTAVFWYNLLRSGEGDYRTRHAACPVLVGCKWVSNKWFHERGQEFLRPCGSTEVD
UniProt P07237, residues 18-508: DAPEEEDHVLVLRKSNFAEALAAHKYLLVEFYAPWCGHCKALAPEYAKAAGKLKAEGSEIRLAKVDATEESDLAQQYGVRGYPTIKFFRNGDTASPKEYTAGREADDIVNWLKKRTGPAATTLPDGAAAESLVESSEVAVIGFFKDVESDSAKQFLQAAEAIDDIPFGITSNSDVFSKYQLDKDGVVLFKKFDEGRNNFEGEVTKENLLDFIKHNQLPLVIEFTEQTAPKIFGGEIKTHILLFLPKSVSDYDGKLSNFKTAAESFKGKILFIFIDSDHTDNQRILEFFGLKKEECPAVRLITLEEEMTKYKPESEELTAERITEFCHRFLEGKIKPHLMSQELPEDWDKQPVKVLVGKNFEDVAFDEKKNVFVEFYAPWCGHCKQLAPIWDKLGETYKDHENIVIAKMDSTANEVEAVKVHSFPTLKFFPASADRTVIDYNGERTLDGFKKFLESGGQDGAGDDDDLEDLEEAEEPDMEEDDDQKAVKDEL

Biological target: TAP-P4HA2 (UniProt O15460)
Assay: affinity purification with mass spectrometry; tandem affinity purification of TAP-P4HA2 from transfected HEK293T lysate (50 mM Tris-HCl pH 7.5, 125 mM NaCl, 0.2% NP-40): IgG beads, AcTEV release, streptavidin beads, 4 °C; LC-MS/MS

binding: binds
Molecule: β subunit of the P4HA2 α2β2 heterotetramer (from UniProt P07237 18-508)

binding: binds
B1: KIF7 (endogenous) (protein, UniProt Q2M1P5 1-1343)
chain: MGLEAQRLPGAEEAPVRVALRVRPLLPKELLHGHQSCLQVEPGLGRVTLGRDRHFGFHVVLAEDAGQEAVYQACVQPLLEAFFEGFNATVFAYGQTGSGKTYTMGEASVASLLEDEQGIVPRAMAEAFKLIDENDLLDCLVHVSYLEVYKEEFRDLLEVGTASRDIQLREDERGNVVLCGVKEVDVEGLDEVLSLLEMGNAARHTGATHLNHLSSRSHTVFTVTLEQRGRAPSRLPRPAPGQLLVSKFHFVDLAGSERVLKTGSTGERLKESIQINSSLLALGNVISALGDPQRRGSHIPYRDSKITRILKDSLGGNAKTVMIACVSPSSSDFDETLNTLNYASRAQNIRNRATVNWRPEAERPPEETASGARGPPRHRSETRIIHRGRRAPGPATASAAAAMRLGAECARYRACTDAAYSLLRELQAEPGLPGAAARKVRDWLCAVEGERSALSSASGPDSGIESASVEDQAAQGAGGRKEDEGAQQLLTLQNQVARLEEENRDFLAALEDAMEQYKLQSDRLREQQEEMVELRLRLELVRPGWGGPRLLNGLPPGSFVPRPHTAPLGGAHAHVLGMVPPACLPGDEVGSEQRGEQVTNGREAGAELLTEVNRLGSGSSAASEEEEEEEEPPRRTLHLRRNRISNCSQRAGARPGSLPERKGPELCLEELDAAIPGSRAVGGSKARVQARQVPPATASEWRLAQAQQKIRELAINIRMKEELIGELVRTGKAAQALNRQHSQRIRELEQEAEQVRAELSEGQRQLRELEGKELQDAGERSRLQEFRRRVAAAQSQVQVLKEKKQATERLVSLSAQSEKRLQELERNVQLMRQQQGQLQRRLREETEQKRRLEAEMSKRQHRVKELELKHEQQQKILKIKTEEIAAFQRKRRSGSNGSVVSLEQQQKIEEQKKWLDQEMEKVLQQRRALEELGEELHKREAILAKKEALMQEKTGLESKRLRSSQALNEDIVRVSSRLEHLEKELSEKSGQLRQGSAQSQQQIRGEIDSLRQEKDSLLKQRLEIDGKLRQGSLLSPEEERTLFQLDEAIEALDAAIEYKNEAITCRQRVLRASASLLSQCEMNLMAKLSYLSSSETRALLCKYFDKVVTLREEQHQQQIAFSELEMQLEEQQRLVYWLEVALERQRLEMDRQLTLQQKEHEQNMQLLLQQSRDHLGEGLADSRRQYEARIQALEKELGRYMWINQELKQKLGGVNAVGHSRGGEKRSLCSEGRQAPGNEDELHLAPELLWLSPLTEGAPRTREETRDLVHAPLPLTWKRSSLCGEEQGSPEELRQREAAEPLVGRVLPVGEAGLPWNFGPLSKPRRELRRASPGMIDVRKNPL
